PubChem BioAssay AID1224830 – NIAID, 2016
In all, the deposit lists about 18,000 reagents; below is a random part of them. In the full data, about 2,900 (16%) got an active call. 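Calls are made per well; low scores hint the gene aids the LPS response, high scores that it dampens it.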 Entries without a mark were called inactive. Repeated entries: four replicate wells of each siRNA pool.

Aim: 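Regulators of TLR4 signalling towards TNF-alpha in macrophage-like cells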 (primary screen)
Cells: human THP-1 monocytic leukaemia cells, TNF dual-luciferase reporter clone, PMA-differentiated to macrophage-like cells
Knock-down reagent: siRNA pool against human genes, 50 nM
Duration: LPS for 4 h, given about 3 days after siRNA transfection
Treatment: bacterial LPS (TLR4 ligand), 10 ng/ml
Measured: 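TNF firefly reporter luminescence divided by renilla, normalised to the plate median, then turned into a robust z-score for each replicate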
Reading the numbers: TNF reporter robust z-score: higher = stronger TNF reporter response to LPS
Call rule: 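Each well counts as active if its z-score is over 2.8 or under -1.5; controls are left without a call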

target gene | TNF reporter robust z-score
H3C3 (H3 clustered histone 3) | 0.67
H3C3 (H3 clustered histone 3) | 0.63
H3C3 (H3 clustered histone 3) | 0.39
H3C3 (H3 clustered histone 3) | 0.58
FBXO34 (F-box protein 34) | -0.03
FBXO34 (F-box protein 34) | 1.29
FBXO34 (F-box protein 34) | -0.01
FBXO34 (F-box protein 34) | -0.36
IRF3 (interferon regulatory factor 3) | 0.8
IRF3 (interferon regulatory factor 3) | 1.12
IRF3 (interferon regulatory factor 3) | 1.81
IRF3 (interferon regulatory factor 3) | 0.35
QSOX2 (quiescin sulfhydryl oxidase 2) | 1.45
QSOX2 (quiescin sulfhydryl oxidase 2) | 1.79
QSOX2 (quiescin sulfhydryl oxidase 2) | 1.92
QSOX2 (quiescin sulfhydryl oxidase 2) | 2.88 (active)
AP2A2 (adaptor related protein complex 2 subunit alpha 2) | 1.95
AP2A2 (adaptor related protein complex 2 subunit alpha 2) | 1.8
AP2A2 (adaptor related protein complex 2 subunit alpha 2) | 2.34
AP2A2 (adaptor related protein complex 2 subunit alpha 2) | 2.44
TAS2R16 (taste 2 receptor member 16) | 1.76
TAS2R16 (taste 2 receptor member 16) | 2.66
TAS2R16 (taste 2 receptor member 16) | 1.78
TAS2R16 (taste 2 receptor member 16) | 1.59
RDX (radixin) | -0.86
RDX (radixin) | -0.92
RDX (radixin) | -0.47
RDX (radixin) | -0.54
SOX12 (SRY-box transcription factor 12) | 0.53
SOX12 (SRY-box transcription factor 12) | -0.25
SOX12 (SRY-box transcription factor 12) | -0.31
SOX12 (SRY-box transcription factor 12) | -0.59
TYW1 (tRNA-yW synthesizing protein 1 homolog) | -0.84
TYW1 (tRNA-yW synthesizing protein 1 homolog) | 1.84
TYW1 (tRNA-yW synthesizing protein 1 homolog) | 0.56
TYW1 (tRNA-yW synthesizing protein 1 homolog) | 0.37
ITLN1 (intelectin 1) | -1
ITLN1 (intelectin 1) | -0.68
ITLN1 (intelectin 1) | -1.29
ITLN1 (intelectin 1) | 1
SMCO3 (single-pass membrane protein with coiled-coil domains 3) | -1.09
SMCO3 (single-pass membrane protein with coiled-coil domains 3) | -1.15
SMCO3 (single-pass membrane protein with coiled-coil domains 3) | -0.79
SMCO3 (single-pass membrane protein with coiled-coil domains 3) | -1.19
HABP2 (hyaluronan binding protein 2) | 0.63
HABP2 (hyaluronan binding protein 2) | -0.42
HABP2 (hyaluronan binding protein 2) | 0.73
HABP2 (hyaluronan binding protein 2) | 0.26
SCLT1 (sodium channel and clathrin linker 1) | -0.44
SCLT1 (sodium channel and clathrin linker 1) | 0.28
SCLT1 (sodium channel and clathrin linker 1) | -0.19
SCLT1 (sodium channel and clathrin linker 1) | 0.06
TMPRSS15 (transmembrane serine protease 15) | -0.93
TMPRSS15 (transmembrane serine protease 15) | -0.73
TMPRSS15 (transmembrane serine protease 15) | 0.84
TMPRSS15 (transmembrane serine protease 15) | -0.32
LYPD1 (LY6/PLAUR domain containing 1) | -0.06
LYPD1 (LY6/PLAUR domain containing 1) | 2.22
LYPD1 (LY6/PLAUR domain containing 1) | -0.37
LYPD1 (LY6/PLAUR domain containing 1) | 1.91
ADCK5 (aarF domain containing kinase 5) | 1.13
ADCK5 (aarF domain containing kinase 5) | 1.23
ADCK5 (aarF domain containing kinase 5) | 0.02
ADCK5 (aarF domain containing kinase 5) | 1.84
TATDN3 (TatD DNase domain containing 3) | -0.38
TATDN3 (TatD DNase domain containing 3) | -0.55
TATDN3 (TatD DNase domain containing 3) | -1.03
TATDN3 (TatD DNase domain containing 3) | 0.26
BOLA3 (bolA family member 3) | 0.32
BOLA3 (bolA family member 3) | 0.94
BOLA3 (bolA family member 3) | 1.52
BOLA3 (bolA family member 3) | 1.03
OR2A1 (olfactory receptor family 2 subfamily A member 1) | 0.34
OR2A1 (olfactory receptor family 2 subfamily A member 1) | 0.87
OR2A1 (olfactory receptor family 2 subfamily A member 1) | -0.54
OR2A1 (olfactory receptor family 2 subfamily A member 1) | 2.73
PSMG3 (proteasome assembly chaperone 3) | 1.35
PSMG3 (proteasome assembly chaperone 3) | 2.76
PSMG3 (proteasome assembly chaperone 3) | 1.64
PSMG3 (proteasome assembly chaperone 3) | 3.09 (active)
KIAA0825 | -0.22
KIAA0825 | 1.33
KIAA0825 | 0.07
KIAA0825 | 0.22
BEST3 (bestrophin 3) | -0.07
BEST3 (bestrophin 3) | -0.17
BEST3 (bestrophin 3) | -0.1
BEST3 (bestrophin 3) | 0.06
HPR (haptoglobin-related protein) | -0.99
HPR (haptoglobin-related protein) | -1.61 (active)
HPR (haptoglobin-related protein) | -0.53
HPR (haptoglobin-related protein) | -0.43
JMJD7-PLA2G4B (JMJD7-PLA2G4B readthrough) | -1.29
JMJD7-PLA2G4B (JMJD7-PLA2G4B readthrough) | -0.85
JMJD7-PLA2G4B (JMJD7-PLA2G4B readthrough) | -1.47
JMJD7-PLA2G4B (JMJD7-PLA2G4B readthrough) | -0.45
GAGE6 (G antigen 6) | -1.49
GAGE6 (G antigen 6) | -0.74
GAGE6 (G antigen 6) | 0.1
GAGE6 (G antigen 6) | -1.31
HIVEP2 (HIVEP zinc finger 2) | -0.14
HIVEP2 (HIVEP zinc finger 2) | 0.23
HIVEP2 (HIVEP zinc finger 2) | 0.35
HIVEP2 (HIVEP zinc finger 2) | 2.14
SF3B5 (splicing factor 3b subunit 5) | -0.19
SF3B5 (splicing factor 3b subunit 5) | 0.07
SF3B5 (splicing factor 3b subunit 5) | -0.17
SF3B5 (splicing factor 3b subunit 5) | -0.57
GNL2 (G protein nucleolar 2) | -1.07
GNL2 (G protein nucleolar 2) | 0.17
GNL2 (G protein nucleolar 2) | -0.99
GNL2 (G protein nucleolar 2) | -1.02
ZNF767P (zinc finger family member 767, pseudogene) | -0.5
ZNF767P (zinc finger family member 767, pseudogene) | -0.26
ZNF767P (zinc finger family member 767, pseudogene) | -0.34
ZNF767P (zinc finger family member 767, pseudogene) | -0.54
OR6C70 (olfactory receptor family 6 subfamily C member 70) | -0.54
OR6C70 (olfactory receptor family 6 subfamily C member 70) | 0.8
OR6C70 (olfactory receptor family 6 subfamily C member 70) | -0.11
OR6C70 (olfactory receptor family 6 subfamily C member 70) | -0.83
PSMC3IP (PSMC3 interacting protein) | 0.04
PSMC3IP (PSMC3 interacting protein) | -0.33
PSMC3IP (PSMC3 interacting protein) | -1.22
PSMC3IP (PSMC3 interacting protein) | -0.2
LRRC2 (leucine rich repeat containing 2) | 1.19
LRRC2 (leucine rich repeat containing 2) | 0.45
LRRC2 (leucine rich repeat containing 2) | 0.97
LRRC2 (leucine rich repeat containing 2) | 2.25
CASR (calcium sensing receptor) | 0.59
CASR (calcium sensing receptor) | 1.09
CASR (calcium sensing receptor) | 0.91
CASR (calcium sensing receptor) | 0.86
STRN3 (striatin 3) | -0.61
STRN3 (striatin 3) | 0.3
STRN3 (striatin 3) | -0.36
STRN3 (striatin 3) | 0.06
MXD3 (MAX dimerization protein 3) | 0.94
MXD3 (MAX dimerization protein 3) | 3.04 (active)
MXD3 (MAX dimerization protein 3) | 3.11 (active)
MXD3 (MAX dimerization protein 3) | 4.3 (active)

Ordered by “TNF reporter robust z-score” (high to low): 17 of the entries above
target gene | TNF reporter robust z-score
QSOX2 (quiescin sulfhydryl oxidase 2) | 2.88 (active)
AP2A2 (adaptor related protein complex 2 subunit alpha 2) | 2.44
AP2A2 (adaptor related protein complex 2 subunit alpha 2) | 2.34
AP2A2 (adaptor related protein complex 2 subunit alpha 2) | 1.95
QSOX2 (quiescin sulfhydryl oxidase 2) | 1.92
IRF3 (interferon regulatory factor 3) | 1.81
AP2A2 (adaptor related protein complex 2 subunit alpha 2) | 1.8
QSOX2 (quiescin sulfhydryl oxidase 2) | 1.79
QSOX2 (quiescin sulfhydryl oxidase 2) | 1.45
FBXO34 (F-box protein 34) | 1.29
IRF3 (interferon regulatory factor 3) | 1.12
IRF3 (interferon regulatory factor 3) | 0.8
H3C3 (H3 clustered histone 3) | 0.58
IRF3 (interferon regulatory factor 3) | 0.35
FBXO34 (F-box protein 34) | -0.01
FBXO34 (F-box protein 34) | -0.03
FBXO34 (F-box protein 34) | -0.36
